Results reported in the supplement of paper PMC7580552.
Structures can show the parent of a compound that is named as a salt. ± gives the standard deviation of the averaged measurements. The list shows a part of the results. Baselines shift from plate to plate; read single values as rough.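 Biofilm, quantified by the absorbance of well-retained crystal violet, is assayed using the K-12 laboratory model grown unshaken in 96-well plates. Candidate specific biofilm inhibitors were drugs that sharply lowered staining yet reduced free-floating growth by less than 70%.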

Tested on: Escherichia coli W3110
Assay: biofilm formation (crystal violet staining) relative to untreated control; higher = more biofilm
Conditions: 10 µM; 20-24 h; 30 °C; TB

Row | Structure (SMILES) | biofilm formation
1 | CC(C)(C)NC[C@H](O)COc1cccc2c1CCCC2=O [(-) -Levobunolol hydrochloride] | 87%
2 | Nc1ncn(C2OC(CO)C(O)C2O)c(=O)n1 (configuration not stated) [Azacytidine-5] | 68%
3 | O=C(O)CCC(=O)c1ccc(-c2ccccc2)cc1 [Fenbufen] | 67%
4 | CN1CCN2c3ccccc3Cc3ccccc3C2C1 (configuration not stated) [Mianserine hydrochloride] | 61%
5 | N[C@@H](Cc1ccc(O)c(O)c1)C(=O)O [Levodopa] | 67%
6 | CCCCc1ncc(/C=C(\Cc2cccs2)C(=O)O)n1Cc1ccc(C(=O)O)cc1 [Eprosartan mesylate] | 79%
7 | O=C1c2cccc(O)c2C(=O)c2c(O)cccc21 [1,8-Dihydroxyanthraquinone] | 75%
8 | CC(C)NNC(=O)c1ccncc1 [Iproniazide phosphate] | 55%
9 | CCN(CC)CCNC(=O)c1cc(Br)c(N)cc1OC [Bromopride] | 83%
10 | CCCCC(=O)N(Cc1ccc(-c2ccccc2-c2nnn[nH]2)cc1)[C@H](C(=O)O)C(C)C [Valsartan] | 115%
11 | OC(CCN1CCCCC1)(c1ccccc1)c1ccccc1 [Pridinol methanesulfonate salt] | 94%
12 | CCC[C@@H]1C[C@@H](C(=O)N[C@@H]([C@H]2O[C@H](SC)[C@H](O)[C@@H](O)[C@H]2O)[C@@H](C)O)N(C)C1 [Lincomycin hydrochloride] | 77%
13 | CCN(CC)CCN[C@@H](C(=O)OCCC(C)C)c1ccccc1 [Camylofine chlorhydrate] | 73%
14 | CN1CCCN=C1/C=C/c1cccs1 [Pyrantel tartrate] | 83%
15 | C#C[C@]1(O)CC[C@H]2[C@@H]3CCC4=Cc5oncc5C[C@]4(C)[C@H]3CC[C@@]21C [Danazol] | 46%
16 | O=C(Nc1ccc([N+](=O)[O-])cc1Cl)c1cc(Cl)ccc1O [Niclosamide] | 72%
17 | CCOc1ccc(Cc2nccc3cc(OCC)c(OCC)cc23)cc1OCC [Ethaverine hydrochloride] | 85%
18 | CC12CC3CC(C)(C1)CC(N)(C3)C2 [Memantine Hydrochloride] | 78%
19 | CCN1CCCC1CNC(=O)c1cc(S(N)(=O)=O)ccc1OC (configuration not stated) [Sulpiride] | 62%
20 | COc1ccc(-c2ccc3cc(C(=O)O)ccc3c2)cc1C12CC3CC(CC(C3)C1)C2 [Adapalene] | 44%
21 | O=C(O)c1cccnc1 [Niacin] | 72%

Row | Structure (SMILES) | biofilm formation
22 | CCCCc1oc2ccccc2c1C(=O)c1cc(I)c(OCCN(CC)CC)c(I)c1 [Amiodarone hydrochloride] | 77%
23 | O=c1[nH]c(=O)n([C@H]2C[C@H](O)[C@@H](CO)O2)cc1I [Idoxuridine] | 74%
24 | Cc1cccc(N(C)C(=S)Oc2ccc3ccccc3c2)c1 [Tolnaftate] | 85%
25 | CC1(C)O[C@@H]2C[C@H]3[C@@H]4C[C@H](F)C5=CC(=O)CC[C@]5(C)[C@H]4[C@@H](O)C[C@]3(C)[C@]2(C(=O)CO)O1 [Flurandrenolide] | 69%
26 | NNC(=O)c1ccncc1 [Isoniazid] | 83%
27 | CC[C@H](c1ccc(O)cc1)[C@@H](CC)c1ccc(O)cc1 [Hexestrol] | 61%
28 | Cc1c(Nc2ncccc2C(=O)O)cccc1C(F)(F)F [Flunixin meglumine] | 86%
29 | C[C@H](CS)C(=O)N1CCC[C@H]1C(=O)O [Captopril] | 74%
30 | CN(Cc1cc(Br)cc(Br)c1N)C1CCCCC1 [Bromhexine hydrochloride] | 86%
31 | CC1(C)O[C@@H]2C[C@H]3[C@@H]4C[C@H](F)C5=CC(=O)C=C[C@]5(C)[C@H]4[C@@H](O)C[C@]3(C)[C@]2(C(=O)CO)O1 [Flunisolide] | 83.5 ± 6.4%
32 | NCCc1ccc(O)c(O)c1 [Dopamine hydrochloride] | 85%
33 | CC(C)C(=O)c1c(C(C)C)nn2ccccc12 [Ibudilast] | 93%
34 | CC(C)NCC(O)COc1cccc2[nH]ccc12 (configuration not stated) [Pindolol] | 72%
35 | OC(CCN1CCCC1)(c1ccccc1)C1CCCCC1 (configuration not stated) [Procyclidine hydrochloride] | 62%
36 | CC(CN(C)C)CN1c2ccccc2CCc2ccccc21 (configuration not stated) [Trimipramine maleate salt] | 65%
37 | CCCCOc1ccc(C(=O)CCN2CCCCC2)cc1 [Dyclonine hydrochloride] | 68%
38 | Cn1nnc2c(C(N)=O)ncn2c1=O [Temozolomide] | 76%
39 | CN1[C@@H]2CC[C@H]1C[C@@H](OC(=O)C(O)c1ccccc1)C2 (mixture of isomers) [Homatropine hydrobromide (R,S)] | 76%
40 | CC(C)(C)CC(C)(C)c1ccc(OCCOCC[N+](C)(C)Cc2ccccc2)cc1 [Benzethonium chloride] | 49%
41 | CC(C)(C)NC(=O)[C@H]1CC[C@H]2[C@@H]3CC[C@H]4NC(=O)C=C[C@]4(C)[C@H]3CC[C@]12C [Finasteride] | 79%
42 | Nc1nc(N)c2nc(-c3ccccc3)c(N)nc2n1 [Triamterene] | 71%

Look-ups from the entries so far.
Under biofilm formation, `CC(C)(C)NC(=O)[C@H]1CC[C@H]2[C@@H]3CC[C@H]4NC(=O)C=C[C@]4(C)[C@H]3CC[C@]12C` [Finasteride] is entered as 79%
Under biofilm formation, `CC(CN(C)C)CN1c2ccccc2CCc2ccccc21` (configuration not stated) [Trimipramine maleate salt] is entered as 65%
